Assay results from PubChem BioAssay AID256 (DTP/NCI, 2004).
The list is a part of this screen's results and no random one: it gathers tests that were run many times, whatever their T/C, doses with no T/C, and many T/C values between a quarter and a half above the control. Other doses and runs of a compound stand elsewhere. T/C gives the treated animals as a percentage of the vehicle group. Some entries give survivors of the animals treated and no T/C: the source holds a T/C of zero for them, seemingly a mark for toxic or unscored doses. Some survivor counts are full or nearly so, which does not show that the dose was tolerated: the source hardly ever lists a survival T/C far under the control, and the zero likely stands for such cases as well. Survivors were counted at the toxicity check, usually on the fifth day, unless a day is given; later deaths do not show. Schedule codes are those of the source, taken here to give the interval after Q, in days (D) or hours (H), and the number of doses after X. Some doses were run more than once; the values are given in rising order. Marks such as (2×) count equal records among those shown. For survival time, the PubChem record calls one and a half times the control and up active, and a quarter to a half above the control has no call in these data; cut-offs in other NCI protocols can differ. Some T/C values are followed by the survivors on the day toxicity was checked, most often the fifth; without a count, all were alive then.

Tested on: CD2F1 mice, L1210 leukemia ip, survival T/C
Assay: NCI In Vivo Anticancer Drug Screen. Data for tumor model L1210 Leukemia (intraperitoneal) in CD2F1 (CDF1) mice
Conditions: higher T/C = longer survival
Method: The antitumor activity of compounds was measured in mice bearing transplantable tumors. Survival or tumor size were measured and the results are expressed as the measurement made in the treated group (T) divided by the measurement made in the vehicle treated control group (C). The tumor model used in this assay is L1210 Leukemia (intraperitoneal) in CD2F1 (CDF1) mice

[1] = T/C endpoint: median survival time, dose: 150.0 mg/kg/injection, schedule: Q01DX009 (ip), vehicle: saline with Tween-80
[2] = T/C endpoint: median survival time, dose: 200.0 mg/kg/injection, schedule: Q01DX009 (ip), vehicle: saline with Tween-80

O=C(Nc1ccccc1)c1c(O)[nH]c(=S)[nH]c1=O
T/C (T/C endpoint: median survival time, dose: 6.2 mg/kg/injection, schedule: Q01DX009 (ip), vehicle: other): 127 % of control | T/C (T/C endpoint: median survival time, dose: 12.5 mg/kg/injection, schedule: Q01DX009 (ip), vehicle: other): 133 % of control | T/C (T/C endpoint: median survival time, dose: 12.5 mg/kg/injection, schedule: Q01DX009 (ip), vehicle: saline with Tween-80, evaluated on day 30): 102, 106, 110 (2×), 111 (2×), 112 (2×), 113 (2×), 114, 116, 117 (2×), 118, 125, 131 % of control | T/C (T/C endpoint: median survival time, dose: 12.5 mg/kg/injection, schedule: Q01DX009 (ip), vehicle: saline with Tween-80, evaluated on day 35): 115 % of control | T/C (T/C endpoint: median survival time, dose: 12.5 mg/kg/injection, schedule: Q01DX009 (ip), vehicle: saline with Tween-80, evaluated on day 60): 127 % of control | T/C (T/C endpoint: median survival time, dose: 25.0 mg/kg/injection, schedule: Q01DX009 (ip), vehicle: saline with Tween-80, evaluated on day 30): 107, 109, 113, 116 (2×), 118 [5 of 6 alive], 119, 120 (5×), 121, 122 (3×), 124, 125 (2×), 126, 127 (2×), 128, 131, 132, 134 (2×), 144 % of control | T/C (T/C endpoint: median survival time, dose: 25.0 mg/kg/injection, schedule: Q01DX009 (ip), vehicle: saline with Tween-80, evaluated on day 35): 132 % of control | T/C (T/C endpoint: median survival time, dose: 25.0 mg/kg/injection, schedule: Q01DX009 (ip), vehicle: saline with Tween-80, evaluated on day 60): 135 % of control [5 of 6 alive] | T/C (T/C endpoint: median survival time, dose: 30.0 mg/kg/injection, schedule: Q01DX009 (ip), vehicle: saline with Tween-80): 139 % of control | survivor count (T/C endpoint: median survival time, dose: 50.0 mg/kg/injection, schedule: Q01DX005 (iv), vehicle: other): 2 of 6 | T/C (T/C endpoint: median survival time, dose: 50.0 mg/kg/injection, schedule: Q01DX009 (ip), vehicle: saline with Tween-80, evaluated on day 30): 123, 141, 142 (3×), 144 (3×), 145, 147 [5 of 6 alive], 151, 152, 158, 160, 162, 164, 170, 174, 175, 177, 178, 179, 182, 183, 185, 187, 216, 290 % of control | T/C (T/C endpoint: median survival time, dose: 50.0 mg/kg/injection, schedule: Q01DX009 (ip), vehicle: saline with Tween-80, evaluated on day 35): 209 % of control | T/C (T/C endpoint: median survival time, dose: 50.0 mg/kg/injection, schedule: Q01DX009 (ip), vehicle: saline with Tween-80, evaluated on day 60): 162, 175, 185 % of control | T/C (T/C endpoint: median survival time, dose: 75.0 mg/kg/injection, schedule: Q01DX009 (ip), vehicle: saline with Tween-80): 197, 210, 212, 235, 349 % of control | survivor count (T/C endpoint: median survival time, dose: 100.0 mg/kg/injection, schedule: Q01DX005 (iv), vehicle: other): 0 of 6 | survivor count (T/C endpoint: median survival time, dose: 100.0 mg/kg/injection, schedule: Q01DX009 (ip), vehicle: other): 0 of 6 | T/C (T/C endpoint: median survival time, dose: 100.0 mg/kg/injection, schedule: Q01DX009 (ip), vehicle: saline with Tween-80, evaluated on day 30): 91, 133, 166, 166 [4 of 6 alive], 177, 186, 189, 190, 197 (2×), 202 [5 of 6 alive], 214, 217 [5 of 6 alive], 223, 227, 228, 231, 285 (2×), 322 [5 of 6 alive], 326 [5 of 6 alive], 329 (2×), 329 [5 of 6 alive], 337, 340, 344 [5 of 6 alive], 375 % of control | T/C (T/C endpoint: median survival time, dose: 100.0 mg/kg/injection, schedule: Q01DX009 (ip), vehicle: saline with Tween-80, evaluated on day 35): 139 % of control [5 of 6 alive] | T/C (T/C endpoint: median survival time, dose: 100.0 mg/kg/injection, schedule: Q01DX009 (ip), vehicle: saline with Tween-80, evaluated on day 45): 256 % of control | T/C (T/C endpoint: median survival time, dose: 100.0 mg/kg/injection, schedule: Q01DX009 (ip), vehicle: saline with Tween-80, evaluated on day 60): 202, 219, 244 (2×), 250, 370, 722 % of control | survivor count (T/C endpoint: median survival time, dose: 100.0 mg/kg/injection, schedule: Q01DX009 (ip), vehicle: water): 0 of 4 | T/C (T/C endpoint: median survival time, dose: 125.0 mg/kg/injection, schedule: Q01DX009 (ip), vehicle: saline with Tween-80): 246 [8 of 9 alive], 268, 317, 318, 625 % of control | T/C [1]: 108 [8 of 10 alive], 122, 219, 625, 740 % of control | survivor count [1]: 4 of 6 | T/C [2]: 94 [5 of 6 alive], 98, 104 [5 of 6 alive], 238 [4 of 6 alive], 261, 266 [4 of 6 alive], 292 [5 of 6 alive], 302, 313 [4 of 6 alive], 315, 326, 326 [5 of 6 alive], 329 [5 of 6 alive], 340 [5 of 6 alive], 344, 352 % of control | survivor count [2]: 0 of 6 (2×), 1 of 6 (2×), 2 of 6, 2 of 5, 3 of 6, 4 of 6 | survivor count (T/C endpoint: median survival time, dose: 200.0 mg/kg/injection, schedule: Q01DX009 (ip), vehicle: water): 0 of 4

CN(C)c1ccc(/C=N/NC(=O)NN)cc1
survivor count (T/C endpoint: mean survival time, dose: 100.0 mg/kg/injection, schedule: Q04DX003 (ip), vehicle: saline with Tween-80): 6 of 6 | survivor count (T/C endpoint: mean survival time, dose: 200.0 mg/kg/injection, schedule: Q04DX003 (ip), vehicle: saline with Tween-80): 3 of 6 | survivor count (T/C endpoint: mean survival time, dose: 400.0 mg/kg/injection, schedule: Q04DX003 (ip), vehicle: saline with Tween-80): 0 of 6

CN1CC=C(c2ccccc2)CC1
survivor count (T/C endpoint: mean survival time, dose: 75.0 mg/kg/injection, schedule: Q04DX003 (ip), vehicle: saline): 4 of 6 | survivor count (T/C endpoint: mean survival time, dose: 150.0 mg/kg/injection, schedule: Q01DX001 (ip), vehicle: saline): 0 of 6 | survivor count (T/C endpoint: mean survival time, dose: 300.0 mg/kg/injection, schedule: Q01DX001 (ip), vehicle: saline): 0 of 6
